From publication PMC6356859 (ACS Omega, 2019)

Test system: EBOV
Assay type: cell-based, Ebola virus

`OCCN1CCN(CCCN2c3ccccc3Sc3ccc(C(F)(F)F)cc32)CC1` [Fluphenazine 2HCl] was tested, and the selectivity indexes was < 5.
